Values from PubChem BioAssay AID1224830 (NIAID, 2016)

Assay: 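Genes whose knock-down alters the TNF-alpha reporter response to LPS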 (primary screen)
Cells: human THP-1 monocytic leukaemia cells, TNF dual-luciferase reporter clone, PMA-differentiated to macrophage-like cells
Reagents: siRNA pool against human genes, 50 nM
Duration: LPS for 4 h, given about 3 days after siRNA transfection
Treatment: bacterial LPS (TLR4 ligand), 10 ng/ml
Measurement: 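TNF firefly reporter luminescence divided by renilla, normalised to the plate median, then turned into a robust z-score for each replicate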
Direction: TNF reporter robust z-score: higher = stronger TNF reporter response to LPS
Hit rule: 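Each well counts as active if its z-score is over 2.8 or under -1.5; controls are left without a call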
Shown is one part, drawn at random, of about 18,000 deposited reagents. About 2,900 of them (16%) were called active. 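Calls are made per well; low scores hint the gene aids the LPS response, high scores that it dampens it.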 Repeated entries: four replicate wells of each siRNA pool. No sequences are given here.

no.	gene	PubChem SID	TNF reporter robust z-score	outcome
1	GOT1L1 (glutamic-oxaloacetic transaminase 1 like 1)	SID315462020	0.15	inactive
2	GOT1L1 (glutamic-oxaloacetic transaminase 1 like 1)	SID315462020	3.79	active
3	GOT1L1 (glutamic-oxaloacetic transaminase 1 like 1)	SID315462020	0.84	inactive
4	GOT1L1 (glutamic-oxaloacetic transaminase 1 like 1)	SID315462020	1.77	inactive
5	FOXP4 (forkhead box P4)	SID315461346	0.58	inactive
6	FOXP4 (forkhead box P4)	SID315461346	-0.04	inactive
7	FOXP4 (forkhead box P4)	SID315461346	-0.9	inactive
8	FOXP4 (forkhead box P4)	SID315461346	-0.55	inactive
9	SGCD (sarcoglycan delta)	SID315451400		inactive
10	SGCD (sarcoglycan delta)	SID315451400	0.02	inactive
11	SGCD (sarcoglycan delta)	SID315451400	-0.16	inactive
12	SGCD (sarcoglycan delta)	SID315451400	-0.3	inactive
13	SGCD (sarcoglycan delta)	SID315451400	0.03	inactive
14	E2F3 (E2F transcription factor 3)	SID315448416	-0.84	inactive
15	E2F3 (E2F transcription factor 3)	SID315448416	-1.85	active
16	E2F3 (E2F transcription factor 3)	SID315448416	-1.09	inactive
17	E2F3 (E2F transcription factor 3)	SID315448416	-0.64	inactive
18	YAF2 (YY1 associated factor 2)	SID315453849	1.42	inactive
19	YAF2 (YY1 associated factor 2)	SID315453849	-0.23	inactive
20	YAF2 (YY1 associated factor 2)	SID315453849	0.27	inactive
21	YAF2 (YY1 associated factor 2)	SID315453849	0.58	inactive
22	SMAD5 (SMAD family member 5)	SID315449845	0.41	inactive
23	SMAD5 (SMAD family member 5)	SID315449845	-0.22	inactive
24	SMAD5 (SMAD family member 5)	SID315449845	0.27	inactive
25	SMAD5 (SMAD family member 5)	SID315449845	0.01	inactive
26	TTLL13 (tubulin tyrosine ligase like 13)	SID315464902	-1.06	inactive
27	TTLL13 (tubulin tyrosine ligase like 13)	SID315464902	-0.59	inactive
28	TTLL13 (tubulin tyrosine ligase like 13)	SID315464902	0.77	inactive
29	TTLL13 (tubulin tyrosine ligase like 13)	SID315464902	0.73	inactive
30	INTS13 (integrator complex subunit 13)	SID315457803	-0.84	inactive
31	INTS13 (integrator complex subunit 13)	SID315457803	-0.01	inactive
32	INTS13 (integrator complex subunit 13)	SID315457803	-0.12	inactive
33	INTS13 (integrator complex subunit 13)	SID315457803	-0.38	inactive
34	NLE1 (notchless homolog 1)	SID315457027	0.62	inactive
35	NLE1 (notchless homolog 1)	SID315457027	-0.18	inactive
36	NLE1 (notchless homolog 1)	SID315457027	0.42	inactive
37	NLE1 (notchless homolog 1)	SID315457027	0.57	inactive
38	PSTK (phosphoseryl-tRNA kinase)	SID315461451	-0.59	inactive
39	PSTK (phosphoseryl-tRNA kinase)	SID315461451	0.62	inactive
40	PSTK (phosphoseryl-tRNA kinase)	SID315461451	-1.37	inactive
41	PSTK (phosphoseryl-tRNA kinase)	SID315461451	0.27	inactive
42	BIK (BCL2 interacting killer)	SID315447549	-1	inactive
43	BIK (BCL2 interacting killer)	SID315447549	-0.05	inactive
44	BIK (BCL2 interacting killer)	SID315447549	-0.12	inactive
45	BIK (BCL2 interacting killer)	SID315447549	-0.28	inactive
46	FKBP1A (FKBP prolyl isomerase 1A)	SID315448700	0	inactive
47	FKBP1A (FKBP prolyl isomerase 1A)	SID315448700	-0.7	inactive
48	FKBP1A (FKBP prolyl isomerase 1A)	SID315448700	-0.9	inactive

12 successive reagents already listed, for reference:
no.	gene	PubChem SID	TNF reporter robust z-score	outcome
36	NLE1 (notchless homolog 1)	SID315457027	0.42	inactive
37	NLE1 (notchless homolog 1)	SID315457027	0.57	inactive
38	PSTK (phosphoseryl-tRNA kinase)	SID315461451	-0.59	inactive
39	PSTK (phosphoseryl-tRNA kinase)	SID315461451	0.62	inactive
40	PSTK (phosphoseryl-tRNA kinase)	SID315461451	-1.37	inactive
41	PSTK (phosphoseryl-tRNA kinase)	SID315461451	0.27	inactive
42	BIK (BCL2 interacting killer)	SID315447549	-1	inactive
43	BIK (BCL2 interacting killer)	SID315447549	-0.05	inactive
44	BIK (BCL2 interacting killer)	SID315447549	-0.12	inactive
45	BIK (BCL2 interacting killer)	SID315447549	-0.28	inactive
46	FKBP1A (FKBP prolyl isomerase 1A)	SID315448700	0	inactive
47	FKBP1A (FKBP prolyl isomerase 1A)	SID315448700	-0.7	inactive

The results go on.
no.	gene	PubChem SID	TNF reporter robust z-score	outcome
49	AHNAK (AHNAK nucleoprotein)	SID315459165	-0.75	inactive
50	AHNAK (AHNAK nucleoprotein)	SID315459165	-0.87	inactive
51	AHNAK (AHNAK nucleoprotein)	SID315459165	-0.13	inactive
52	AHNAK (AHNAK nucleoprotein)	SID315459165	-0.25	inactive
53	HBM (hemoglobin subunit mu)	SID315449154	0.93	inactive
54	HBM (hemoglobin subunit mu)	SID315449154	0.17	inactive
55	HBM (hemoglobin subunit mu)	SID315449154	0.91	inactive
56	HBM (hemoglobin subunit mu)	SID315449154	0.04	inactive
57	RPL6 (ribosomal protein L6)	SID315451173	0.37	inactive
58	RPL6 (ribosomal protein L6)	SID315451173	0.76	inactive
59	RPL6 (ribosomal protein L6)	SID315451173	0.21	inactive
60	RPL6 (ribosomal protein L6)	SID315451173	-0.02	inactive
61	PARPBP (PARP1 binding protein)	SID315457342	-0.36	inactive
62	PARPBP (PARP1 binding protein)	SID315457342	-0.14	inactive
63	PARPBP (PARP1 binding protein)	SID315457342	-1.03	inactive
64	PARPBP (PARP1 binding protein)	SID315457342	0.08	inactive
65	KCND1 (potassium voltage-gated channel subfamily D member 1)	SID315449605	-0.18	inactive
66	KCND1 (potassium voltage-gated channel subfamily D member 1)	SID315449605	0.92	inactive
67	KCND1 (potassium voltage-gated channel subfamily D member 1)	SID315449605	1.08	inactive
68	KCND1 (potassium voltage-gated channel subfamily D member 1)	SID315449605	0.45	inactive
69	UBD (ubiquitin like modifier D)	SID315454171	0.57	inactive
70	UBD (ubiquitin like modifier D)	SID315454171	1.69	inactive
71	UBD (ubiquitin like modifier D)	SID315454171	0.63	inactive
72	UBD (ubiquitin like modifier D)	SID315454171	1.03	inactive
73	BMP2K (BMP2 inducible kinase)	SID315457696	0	inactive
74	BMP2K (BMP2 inducible kinase)	SID315457696	-0.2	inactive
75	BMP2K (BMP2 inducible kinase)	SID315457696	3.35	active
76	BMP2K (BMP2 inducible kinase)	SID315457696	0.83	inactive
